Results are given in words; binding and its absence hold for the method and conditions named. Some entries that bind do so weakly or less than the wild type.
Biological target: T1, sCD32B-Ig (UniProt P31994 43-217)
T1 construct: extracellular domain; also called CD32B-Fc; CD32-Fc; not shown: Ig/Fc part not described
T1 sequence (looked up): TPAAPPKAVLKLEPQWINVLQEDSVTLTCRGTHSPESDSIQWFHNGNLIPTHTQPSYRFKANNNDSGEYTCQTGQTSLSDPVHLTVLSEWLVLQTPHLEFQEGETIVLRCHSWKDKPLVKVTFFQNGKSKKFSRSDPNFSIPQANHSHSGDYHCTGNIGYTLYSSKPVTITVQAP
Experiment: sandwich ELISA, sCD32B-Ig coat, sCD16A probe

B1: h2B6-h3G8 covalent bispecific diabody (CBD) (bispecific antibody)
chain 1: EIVLTQSPDFQSVTPKEKVTFTCRTSQSIGTNIHWYQQKPDQSPKLLIKEVSESISGVPSRFSGSGSGTDFTLTINSLEAEDAATYYCQQSNTWPFTFGGGTKVEIKGGGSGGGGQVTLRESGPALVKPTQTLTLTCTFSGFSLSTSGMGVGWIRQPPGKALEWLAHIWWDDDKRYNPALKSRLTISKDTSKNQVVLTMTNMDPVDTATYYCAQINPAWFAYWGQGTLVTVSSLGGC
chain 2: DIVMTQSPDSLAVSLGERATINCKASQSVDFDGDSFMNWYQQKPGQPPKLLIYTTSNLESGVPDRFSGSGSGTDFTLTISSLQAEDVAVYYCQQSNEDPYTFGQGTKLEIKGGGSGGGGQVQLVQSGAEVKKPGASVKVSCKASGYTFTNYWIHWVRQAPGQGLEWIGVIDPSDTYPNYNKKFKGRVTMTVVVSTSTAYMELRSLRSDDTAVYYCARNGDSDYYSGMDYWGQGTTVTVSSLGGC
notes: covalent heterodimer of constructs 1 and 2; also called h2B6-h3G8 CBD; h2B6-h3G8 diabody
**Q.** How did the binding turn out when B1 was run?
**A.** binds
